Literature values in patent US11123408B2, “Compositions and methods for treating nonsteroidal anti-inflammatory drug (NSAID) associated coagulopathy, thrombocytopenia, glanzmann's thrombasthenia, and/or thrombosis” (YALE UNIVERSITY, priority 2011, dated 2021).
Some entries share one result that the patent states for a list of compounds.

B1: NPP1: ectonucleotide pyrophosphatase/phosphodiesterase family member, literature value only (protein, UniProt P22413 1-925, looked up)
Ectonucleotide …: MERDGCAGGGSRGGEGGRAPREGPAGNGRDRGRSHAAEAPGDPQAAASLLAPMDVGEEPLEKAARARTAKDPNTYKVLSLVLSVCVLTTILGCIFGLKPSCAKEVKSCKGRCFERTFGNCRCDAACVELGNCCLDYQETCIEPEHIWTCNKFRCGEKRLTRSLCACSDDCKDKGDCCINYSSVCQGEKSWVEEPCESINEPQCPAGFETPPTLLFSLDGFRAEYLHTWGGLLPVISKLKKCGTYTKNMRPVYPTKTFPNHYSIVTGLYPESHGIIDNKMYDPKMNASFSLKSKEKFNPEWYKGEPIWVTAKYQGLKSGTFFWPGSDVEINGIFPDIYKMYNGSVPFEERILAVLQWLQLPKDERPHFYTLYLEEPDSSGHSYGPVSSEVIKALQRVDGMVGMLMDGLKELNLHRCLNLILISDHGMEQGSCKKYIYLNKYLGDVKNIKVIYGPAARLRPSDVPDKYYSFNYEGIARNLSCREPNQHFKPYLKHFLPKRLHFAKSDRIEPLTFYLDPQWQLALNPSERKYCGSGFHGSDNVFSNMQALFVGYGPGFKHGIEADTFENIEVYNLMCDLLNLTPAPNNGTHGSLNHLLKNPVYTPKHPKEVHPLVQCPFTRNPRDNLGCSCNPSILPIEDFQTQFNLTVAEEKIIKHETLPYGRPRVLQKENTICLLSQHQFMSGYSQDILMPLWTSYTVDRNDSFSTEDFSNCLYQDFRIPLSPVHKCSFYKNNTKVSYGFLSPPQLNKNSSGIYSEALLTTNIVPMYQSFQVIWRYFHDTLLRKYAEERNGVNVVSGPVFDFDYDGRCDSLENLRQKRRVIRNQEILIPTHFFIVLTSCKDTSQTPLHCENLDTLAFILPHRTDNSESCVHGKHDSSWVEELLMLHRARITDVEHITGLSFYQQRKEPVSDILKLKTHLPTFSQED

Conditions: previously reported for NPP1 and NPP3; cited from earlier work

| Molecule | Michaelis constant for Ap3A, previously reported [µM] |
| --- | --- |
| NPP3: ectonucleotide pyrophosphatase/phosphodiesterase family member, literature value only | 5 to 50 |
| B1 | 5 to 50 |
